In paper PMC7064442:
Results are given in words; binding and its absence hold for the method and conditions named. Binding seen in cells or lysates may run through a third protein. Some binding calls cover weakened binding; strength is not graded here.

Sequences of proteins named here, by UniProt entry; tags and fusion partners are left off.
UniProt Q80U70: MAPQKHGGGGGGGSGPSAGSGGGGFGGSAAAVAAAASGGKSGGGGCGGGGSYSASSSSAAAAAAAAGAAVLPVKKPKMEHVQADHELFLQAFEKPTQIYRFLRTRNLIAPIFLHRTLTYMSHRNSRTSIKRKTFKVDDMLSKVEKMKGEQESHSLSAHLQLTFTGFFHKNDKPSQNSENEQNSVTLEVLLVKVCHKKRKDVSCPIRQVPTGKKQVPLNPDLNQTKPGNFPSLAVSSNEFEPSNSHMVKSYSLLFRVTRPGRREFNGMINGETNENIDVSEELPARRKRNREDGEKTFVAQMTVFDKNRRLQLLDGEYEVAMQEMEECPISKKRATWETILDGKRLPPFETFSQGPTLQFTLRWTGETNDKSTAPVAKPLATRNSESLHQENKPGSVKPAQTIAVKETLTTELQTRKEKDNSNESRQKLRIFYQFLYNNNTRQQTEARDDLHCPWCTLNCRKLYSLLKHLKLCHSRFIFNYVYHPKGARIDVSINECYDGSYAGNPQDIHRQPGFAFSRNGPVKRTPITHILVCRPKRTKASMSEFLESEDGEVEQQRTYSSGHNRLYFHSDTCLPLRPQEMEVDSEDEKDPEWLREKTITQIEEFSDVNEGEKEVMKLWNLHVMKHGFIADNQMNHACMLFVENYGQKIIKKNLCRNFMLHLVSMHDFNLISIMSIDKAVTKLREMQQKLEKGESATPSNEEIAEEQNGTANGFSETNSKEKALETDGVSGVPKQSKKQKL
UniProt O09106: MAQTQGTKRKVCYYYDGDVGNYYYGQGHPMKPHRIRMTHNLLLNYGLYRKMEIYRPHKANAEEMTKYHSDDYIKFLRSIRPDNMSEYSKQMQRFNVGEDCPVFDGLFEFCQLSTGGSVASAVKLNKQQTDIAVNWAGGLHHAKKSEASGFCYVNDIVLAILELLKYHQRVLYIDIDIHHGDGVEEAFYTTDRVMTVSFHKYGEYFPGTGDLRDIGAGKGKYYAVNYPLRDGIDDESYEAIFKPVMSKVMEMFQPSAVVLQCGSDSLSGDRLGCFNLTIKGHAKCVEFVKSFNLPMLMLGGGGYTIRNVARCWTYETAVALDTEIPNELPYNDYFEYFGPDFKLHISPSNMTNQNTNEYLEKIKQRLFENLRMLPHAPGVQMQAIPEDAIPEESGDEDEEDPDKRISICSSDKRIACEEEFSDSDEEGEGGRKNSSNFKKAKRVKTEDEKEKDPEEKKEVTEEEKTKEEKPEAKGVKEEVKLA

Biological target: SUZ12 (PRC2 member) (mouse (endogenous in MEFs)) (UniProt Q80U70)
Assay: co-IP; data not shown: IP with anti-SUZ12 from MEFs, HDAC1 detected; enriched in DNMT3L-expressing MEFs

binding: binds
Substance: HDAC1 (from UniProt O09106 1-482)
